Results deposited as PubChem BioAssay AID652259 (Drosophila RNAi Screening Center, 2013).

Screen: 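Knock-downs that push a Wingless-driven reporter up or down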 (primary screen)
Cells: Drosophila clone 8 imaginal disc epithelial cells
Reagent: long dsRNA against Drosophila genes
Treatment: pathway stimulated by co-transfected Wingless expression plasmid
Detection: 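Dual luciferase reads per well after Wingless plasmid stimulation: reporter firefly light and Renilla control light; activity is firefly divided by Renilla, a ratio not deposited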
Reading the numbers: firefly reporter light: higher = more Wg reporter light, before normalisation; Renilla control light: higher = more transfected or surviving cells
Hit rule: 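a knock-down is a candidate when at least two out of four statistical tests show it departing from its plate mean; one test alone signals a weak candidate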
Meaning of the calls: active = candidate regulator (raises or lowers reporter); inactive = not a candidate
In all, the deposit lists about 22,000 reagents; below is an unselected part of those that have a named target and a result. In the full data, 233 (1.1%) are marked active. 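Light values are raw, unnormalised plate reads; the ratio scores behind the reporter calls were not deposited.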 Entries without a mark were called inactive. Reagents against one gene are numbered here. The record does not give: the amount of reagent, the time to read-out, the dose of the treatment.

CG11584
- firefly reporter light, replicate 1: 25124
- Renilla control light, replicate 1: 11648

Liprin-beta
- firefly reporter light, replicate 1: 5308
- Renilla control light, replicate 1: 1558

CG34338
- firefly reporter light, replicate 1: 3317
- Renilla control light, replicate 1: 1220

Atg8a (Autophagy-related 8a)
- firefly reporter light, replicate 1: 22838
- Renilla control light, replicate 1: 11045

MtnF (Metallothionein F)
- firefly reporter light, replicate 1: 3328
- Renilla control light, replicate 1: 1515

CG33137
- firefly reporter light, replicate 1: 5.14e5
- firefly reporter light, replicate 2: 6.18e5
- Renilla control light, replicate 1: 2.32e5
- Renilla control light, replicate 2: 2.81e5

Tsp42Ee (Tetraspanin 42Ee)
- firefly reporter light, replicate 1: 2354
- firefly reporter light, replicate 2: 6489
- Renilla control light, replicate 1: 995
- Renilla control light, replicate 2: 3089

Abl (Abl tyrosine kinase)
- firefly reporter light, replicate 1: 8652
- Renilla control light, replicate 1: 3328

CSN1a (COP9 signalosome subunit 1a)
- firefly reporter light, replicate 1: 3424
- firefly reporter light, replicate 2: 6698
- Renilla control light, replicate 1: 1254
- Renilla control light, replicate 2: 3031

14-3-3zeta
- firefly reporter light, replicate 1: 10548
- Renilla control light, replicate 1: 3184

CG31819
- firefly reporter light, replicate 1: 21090
- Renilla control light, replicate 1: 12630

EndoB (Endophilin B)
- firefly reporter light, replicate 1: 5973
- Renilla control light, replicate 1: 2394

Individual results from above:
Under “Renilla control light, replicate 1”, CG11584 has 11648
Under “Renilla control light, replicate 1”, CG34338 has 1220

Next records follow.
CG8046
- firefly reporter light, replicate 1: 13787
- Renilla control light, replicate 1: 2321

Tk (Tachykinin) #1
- firefly reporter light, replicate 1: 22150
- Renilla control light, replicate 1: 6176

Tk (Tachykinin) #2
- firefly reporter light, replicate 1: 5.68e5
- firefly reporter light, replicate 2: 6.25e5
- Renilla control light, replicate 1: 3.51e5
- Renilla control light, replicate 2: 3.26e5

noc (no ocelli)
- firefly reporter light, replicate 1: 6849
- Renilla control light, replicate 1: 916

Hex-C (Hexokinase C)
- firefly reporter light, replicate 1: 4491
- Renilla control light, replicate 1: 1437

CG14111
- firefly reporter light, replicate 1: 8395
- Renilla control light, replicate 1: 3014

CG32582 (retired record)
- firefly reporter light, replicate 1: 4588
- Renilla control light, replicate 1: 816

mTTF (mitochondrial transcription termination factor)
- firefly reporter light, replicate 1: 3205
- firefly reporter light, replicate 2: 6560
- Renilla control light, replicate 1: 924
- Renilla control light, replicate 2: 2469

Cpr50Cb (Cuticular protein 50Cb)
- firefly reporter light, replicate 1: 6871
- Renilla control light, replicate 1: 2592

Ist1
- firefly reporter light, replicate 1: 3649
- Renilla control light, replicate 1: 2225

shams
- firefly reporter light, replicate 1: 17693
- Renilla control light, replicate 1: 13211

Cpr49Ac (Cuticular protein 49Ac)
- firefly reporter light, replicate 1: 13648
- Renilla control light, replicate 1: 1990

CG15040 #1
- firefly reporter light, replicate 1: 3445
- Renilla control light, replicate 1: 1431

CG15040 #2
- firefly reporter light, replicate 1: 3.72e5
- firefly reporter light, replicate 2: 4.53e5
- Renilla control light, replicate 1: 1.03e5
- Renilla control light, replicate 2: 83683
